Data source: PubChem BioAssay AID1259424 (University of Nebraska Medical Center, 2018)
The deposit covers about 14,000 reagents; below is a part drawn at random. 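Higher correlation or smaller distance means closer resemblance to KSR1 loss; control wells, including KSR1 knockdowns, recur on many plates.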 Further read-outs or replicates are left out here. Reagent sequences are not shown. Not stated in the record: the time to read-out.

Aim: 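Seek colon cancer survival genes behaving like KSR1, using a six-gene signature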 (primary screen)
System: human HCT116 colon cancer cells
Knock-down reagent: siRNA pool against human genes, 50 nM
Detection: 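Log2 levels of six mRNAs (branched-DNA multiplex), adjusted by two reference genes and the non-targeting median, then scored against the average KSR1 knockdown pattern as Pearson r and euclidean distance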
Scale: mean correlation with KSR1 profile: higher = expression change more like KSR1 knockdown; mean distance from KSR1 profile: higher = expression change less like KSR1 knockdown

Against SPO11 (GeneID 23626), the entry reads mean correlation with KSR1 profile 0.389; mean distance from KSR1 profile 1.14.
For METTL17 (GeneID 64745), the values are mean correlation with KSR1 profile -0.472; mean distance from KSR1 profile 1.51.
Depletion of GABRQ (GeneID 55879) came out at: mean correlation with KSR1 profile -0.0767; mean distance from KSR1 profile 1.72.
With knock-down of POLRMT (GeneID 5442) the results were mean correlation with KSR1 profile -0.399; mean distance from KSR1 profile 2.87.
For ADAT1 (GeneID 23536), the entry reads mean correlation with KSR1 profile 0.655; mean distance from KSR1 profile 1.81.
Depletion of HACL1 (GeneID 26061) resulted in: mean correlation with KSR1 profile -0.0695; mean distance from KSR1 profile 1.72.

3 entries already listed, sorted by “mean distance from KSR1 profile”, lowest first:
SPO11 (GeneID 23626): mean correlation with KSR1 profile = 0.389; mean distance from KSR1 profile = 1.14
METTL17 (GeneID 64745): mean correlation with KSR1 profile = -0.472; mean distance from KSR1 profile = 1.51
GABRQ (GeneID 55879): mean correlation with KSR1 profile = -0.0767; mean distance from KSR1 profile = 1.72

Further entries follow.
With knock-down of SBF2 (GeneID 81846), the screen gave mean correlation with KSR1 profile 0.548; mean distance from KSR1 profile 1.34.
SOD1 (GeneID 6647) showed mean correlation with KSR1 profile -0.112; mean distance from KSR1 profile 2.77.
After knock-down of ZBTB43 (GeneID 23099) the results were mean correlation with KSR1 profile -0.567; mean distance from KSR1 profile 2.81.
Knock-down of TMC1 (GeneID 117531) gave: mean correlation with KSR1 profile 0.0624; mean distance from KSR1 profile 1.84.
Depletion of PARD6B (GeneID 84612) gave: mean correlation with KSR1 profile -0.0389; mean distance from KSR1 profile 1.94.
Silencing of A4GNT (GeneID 51146) resulted in: mean correlation with KSR1 profile 0.106; mean distance from KSR1 profile 1.44.
Silencing of TIMM44 (GeneID 10469) resulted in: mean correlation with KSR1 profile 0.196; mean distance from KSR1 profile 2.79.
Against NDRG1 (GeneID 10397), the entry reads mean correlation with KSR1 profile -0.481; mean distance from KSR1 profile 1.79.
For KIF3C (GeneID 3797), the values are mean correlation with KSR1 profile -0.105; mean distance from KSR1 profile 3.58.
After knock-down of MYL11 (GeneID 29895) the results were mean correlation with KSR1 profile -0.717; mean distance from KSR1 profile 2.64.
Against KIF25-AS1 (GeneID 100505879), the entry reads mean correlation with KSR1 profile -0.227; mean distance from KSR1 profile 1.94.
With knock-down of KDM5A (GeneID 5927), the screen gave mean correlation with KSR1 profile -0.622; mean distance from KSR1 profile 2.6.
For ADCY7 (GeneID 113), the entry reads mean correlation with KSR1 profile 0.103; mean distance from KSR1 profile 4.3.
